Assay results: article PMC11074156
Results are given in words; binding and its absence hold for the method and conditions named. In cells and extracts the contact can be indirect. Binding calls can cover weak binding; strength is not graded here.

Amino acid sequences for entries named in this document (tags omitted). A change or cut given only in a name is not applied to a line headed by its entry. Residues count along the entry.
UniProt P11021, residues 19-654: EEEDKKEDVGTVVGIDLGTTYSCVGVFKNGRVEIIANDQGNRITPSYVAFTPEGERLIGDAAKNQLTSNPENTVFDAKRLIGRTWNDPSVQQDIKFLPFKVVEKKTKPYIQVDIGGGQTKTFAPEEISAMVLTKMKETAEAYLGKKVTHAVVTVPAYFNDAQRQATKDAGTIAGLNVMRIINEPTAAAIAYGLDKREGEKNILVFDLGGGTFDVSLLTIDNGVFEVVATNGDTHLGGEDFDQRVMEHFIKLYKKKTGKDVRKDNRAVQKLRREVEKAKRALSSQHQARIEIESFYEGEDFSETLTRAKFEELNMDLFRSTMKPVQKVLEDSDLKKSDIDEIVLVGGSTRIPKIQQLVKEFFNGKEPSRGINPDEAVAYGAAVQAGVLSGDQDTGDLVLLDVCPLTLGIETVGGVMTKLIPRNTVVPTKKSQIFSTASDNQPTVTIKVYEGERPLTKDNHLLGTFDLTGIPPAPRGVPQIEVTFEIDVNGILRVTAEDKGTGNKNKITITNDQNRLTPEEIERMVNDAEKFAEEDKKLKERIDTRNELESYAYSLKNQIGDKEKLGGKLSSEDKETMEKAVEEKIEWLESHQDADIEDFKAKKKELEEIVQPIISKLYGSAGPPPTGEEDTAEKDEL
UniProt A0A142I5B9: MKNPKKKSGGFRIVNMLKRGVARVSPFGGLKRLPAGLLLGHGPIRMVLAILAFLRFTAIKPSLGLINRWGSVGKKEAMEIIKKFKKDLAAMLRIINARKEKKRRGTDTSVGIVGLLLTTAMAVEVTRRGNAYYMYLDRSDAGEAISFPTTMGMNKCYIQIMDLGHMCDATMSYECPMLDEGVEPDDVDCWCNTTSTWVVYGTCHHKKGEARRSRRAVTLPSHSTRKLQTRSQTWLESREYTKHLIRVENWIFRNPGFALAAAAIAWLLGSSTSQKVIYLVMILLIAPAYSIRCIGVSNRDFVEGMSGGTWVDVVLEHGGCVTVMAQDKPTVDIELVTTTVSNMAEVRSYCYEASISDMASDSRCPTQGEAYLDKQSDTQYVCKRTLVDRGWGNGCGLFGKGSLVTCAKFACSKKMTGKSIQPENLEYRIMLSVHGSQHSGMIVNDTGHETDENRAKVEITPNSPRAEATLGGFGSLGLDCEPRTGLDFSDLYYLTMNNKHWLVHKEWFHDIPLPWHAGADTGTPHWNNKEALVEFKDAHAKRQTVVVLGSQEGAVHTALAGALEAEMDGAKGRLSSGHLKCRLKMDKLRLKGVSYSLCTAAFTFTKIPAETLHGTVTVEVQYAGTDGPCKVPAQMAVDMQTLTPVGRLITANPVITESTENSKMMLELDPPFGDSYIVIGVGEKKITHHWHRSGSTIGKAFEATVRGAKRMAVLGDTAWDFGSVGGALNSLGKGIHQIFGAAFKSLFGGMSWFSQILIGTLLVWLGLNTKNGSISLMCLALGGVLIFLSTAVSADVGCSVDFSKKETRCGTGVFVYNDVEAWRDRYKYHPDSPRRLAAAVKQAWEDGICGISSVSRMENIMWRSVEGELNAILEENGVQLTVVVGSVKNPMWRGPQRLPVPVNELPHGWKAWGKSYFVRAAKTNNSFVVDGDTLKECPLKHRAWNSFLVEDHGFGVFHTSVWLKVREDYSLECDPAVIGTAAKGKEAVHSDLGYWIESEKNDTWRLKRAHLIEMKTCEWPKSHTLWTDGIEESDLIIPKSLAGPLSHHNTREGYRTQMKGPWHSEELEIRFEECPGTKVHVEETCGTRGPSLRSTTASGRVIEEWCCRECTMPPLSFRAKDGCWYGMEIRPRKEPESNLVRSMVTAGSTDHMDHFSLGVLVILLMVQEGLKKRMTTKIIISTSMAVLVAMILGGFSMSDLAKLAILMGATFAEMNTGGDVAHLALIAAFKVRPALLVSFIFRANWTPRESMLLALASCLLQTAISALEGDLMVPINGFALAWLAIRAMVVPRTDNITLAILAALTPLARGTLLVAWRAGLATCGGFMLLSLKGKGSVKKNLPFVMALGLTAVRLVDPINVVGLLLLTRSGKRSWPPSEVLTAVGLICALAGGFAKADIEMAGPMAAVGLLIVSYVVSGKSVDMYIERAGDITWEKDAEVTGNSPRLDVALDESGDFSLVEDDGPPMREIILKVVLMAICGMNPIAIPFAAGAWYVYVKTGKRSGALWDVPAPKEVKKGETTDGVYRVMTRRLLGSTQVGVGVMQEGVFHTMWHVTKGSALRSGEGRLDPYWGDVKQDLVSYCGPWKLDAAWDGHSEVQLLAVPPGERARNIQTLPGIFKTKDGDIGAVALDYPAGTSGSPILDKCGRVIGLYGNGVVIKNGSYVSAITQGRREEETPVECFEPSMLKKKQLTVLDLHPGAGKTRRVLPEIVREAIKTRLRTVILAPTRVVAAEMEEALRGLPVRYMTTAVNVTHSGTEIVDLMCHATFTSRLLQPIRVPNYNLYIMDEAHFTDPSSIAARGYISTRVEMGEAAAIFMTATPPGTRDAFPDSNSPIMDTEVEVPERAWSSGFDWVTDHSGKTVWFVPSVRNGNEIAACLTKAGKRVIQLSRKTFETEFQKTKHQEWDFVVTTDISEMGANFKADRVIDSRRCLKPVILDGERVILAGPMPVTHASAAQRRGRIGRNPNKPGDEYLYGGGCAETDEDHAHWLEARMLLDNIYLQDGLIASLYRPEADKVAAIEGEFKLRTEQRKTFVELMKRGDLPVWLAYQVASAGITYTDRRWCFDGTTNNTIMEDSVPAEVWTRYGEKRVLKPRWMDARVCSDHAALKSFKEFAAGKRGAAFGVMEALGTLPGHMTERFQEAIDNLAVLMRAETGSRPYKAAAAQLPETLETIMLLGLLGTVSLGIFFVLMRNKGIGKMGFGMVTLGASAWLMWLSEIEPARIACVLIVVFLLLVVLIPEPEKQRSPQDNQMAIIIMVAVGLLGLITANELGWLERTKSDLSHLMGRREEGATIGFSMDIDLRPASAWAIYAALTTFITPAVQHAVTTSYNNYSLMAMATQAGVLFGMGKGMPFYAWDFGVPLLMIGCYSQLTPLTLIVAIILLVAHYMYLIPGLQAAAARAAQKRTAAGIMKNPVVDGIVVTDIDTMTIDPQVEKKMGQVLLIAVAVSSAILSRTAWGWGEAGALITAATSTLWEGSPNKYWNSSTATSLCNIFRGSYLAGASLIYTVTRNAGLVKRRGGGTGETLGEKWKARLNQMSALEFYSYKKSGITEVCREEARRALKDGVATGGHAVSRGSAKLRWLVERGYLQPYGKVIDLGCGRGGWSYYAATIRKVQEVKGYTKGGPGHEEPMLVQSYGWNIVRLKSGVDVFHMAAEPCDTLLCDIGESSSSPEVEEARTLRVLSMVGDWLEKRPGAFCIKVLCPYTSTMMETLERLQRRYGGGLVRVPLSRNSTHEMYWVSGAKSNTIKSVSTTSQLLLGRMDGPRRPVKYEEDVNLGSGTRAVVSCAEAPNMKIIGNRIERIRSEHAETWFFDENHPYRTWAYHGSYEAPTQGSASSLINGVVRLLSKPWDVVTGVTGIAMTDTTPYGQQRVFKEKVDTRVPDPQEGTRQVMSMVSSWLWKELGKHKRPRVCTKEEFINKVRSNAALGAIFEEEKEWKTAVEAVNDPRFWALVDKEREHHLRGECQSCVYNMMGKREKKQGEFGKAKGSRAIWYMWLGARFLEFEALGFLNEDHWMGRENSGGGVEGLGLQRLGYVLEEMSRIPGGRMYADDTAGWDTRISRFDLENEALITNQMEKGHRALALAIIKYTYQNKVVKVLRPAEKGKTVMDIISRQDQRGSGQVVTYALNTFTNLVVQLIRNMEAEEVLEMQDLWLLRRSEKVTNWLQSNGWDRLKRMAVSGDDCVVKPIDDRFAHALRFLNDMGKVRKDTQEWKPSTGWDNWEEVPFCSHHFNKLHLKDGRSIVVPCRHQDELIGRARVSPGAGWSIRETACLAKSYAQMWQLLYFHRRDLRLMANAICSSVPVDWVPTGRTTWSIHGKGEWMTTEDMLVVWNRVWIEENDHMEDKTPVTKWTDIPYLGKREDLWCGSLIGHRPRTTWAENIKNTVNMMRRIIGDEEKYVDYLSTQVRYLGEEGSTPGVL

Target: EGFP-full length GRP78 (wild type) (human) (UniProt P11021)
Experiment: co-IP; EGFP-GRP78 fusion as bait co-expressed with the prey in HEK293T/17 for 48 h; lysate in 50 mM HEPES pH 7.4, 150 mM NaCl, 1 mM EGTA, 10% glycerol, 1% Triton X-100; GFP-Trap beads, 4 °C, 1 h; western blot

| Substance | binding |
| --- | --- |
| ZIKV NS1 wing domain, HA tagged (from UniProt A0A142I5B9) (domain or fragment) | binds |
| ZIKV NS1 β-ladder domain, HA tagged (from UniProt A0A142I5B9) (domain or fragment) | binds |
